Structures can show the parent of a compound that is named as a salt. This is one part of the list. Hit calls seldom repeat between salt and free forms of one compound.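 Kinases were expressed as nanoluciferase fusions in K562 cells and luminescence was read every 4 h between 2 and 18 h as percent of control, DMSO set to 100% and a positive control to 0%. A time point counts as decreased when the signal drops significantly (2 sigma). The hit call is the authors' own, does not follow from the count of time points alone, and its rule is not shown.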
Legend:
Experiment in all cases: number of time points (of 5) at which kinase-Nluc abundance scored as decreased, DMSO-normalised (count); higher = more persistent destabilization
Conditions in all cases: K562; 2-18 h
ALK = ALK (UniProt Q9UM73)
ARAF = ARAF (UniProt P10398)
AURKA = AURKA (UniProt O14965)
AURKB = AURKB (UniProt Q96GD4)
AURKC = AURKC (UniProt Q9UQB9)
BLK = BLK (UniProt P51451)
BMX = BMX (UniProt P51813)
BRAF = BRAF (UniProt P15056)
BRAF_V600E = test system: BRAF_V600E
BTK = BTK (UniProt Q06187)
CAMK2A = CAMK2A (UniProt Q9UQM7)
CAMK2G = CAMK2G (UniProt Q13555)
CDK10 = CDK10 (UniProt Q15131)
CDK2 = CDK2 (UniProt P24941)
CDK3 = CDK3 (UniProt Q00526)
CDK5 = CDK5 (UniProt Q00535)
CDK6 = CDK6 (UniProt Q00534)
CHEK2 = CHEK2 (UniProt O96017)
CSF1R = CSF1R (UniProt P07333)
CSK = CSK (UniProt P41240)

Protein sequences, listed by entry. Tags and fused reporters are not part of them. Lines headed by an entry give the natural chain unless they say otherwise; changes in a name come on top.
UniProt Q9UM73: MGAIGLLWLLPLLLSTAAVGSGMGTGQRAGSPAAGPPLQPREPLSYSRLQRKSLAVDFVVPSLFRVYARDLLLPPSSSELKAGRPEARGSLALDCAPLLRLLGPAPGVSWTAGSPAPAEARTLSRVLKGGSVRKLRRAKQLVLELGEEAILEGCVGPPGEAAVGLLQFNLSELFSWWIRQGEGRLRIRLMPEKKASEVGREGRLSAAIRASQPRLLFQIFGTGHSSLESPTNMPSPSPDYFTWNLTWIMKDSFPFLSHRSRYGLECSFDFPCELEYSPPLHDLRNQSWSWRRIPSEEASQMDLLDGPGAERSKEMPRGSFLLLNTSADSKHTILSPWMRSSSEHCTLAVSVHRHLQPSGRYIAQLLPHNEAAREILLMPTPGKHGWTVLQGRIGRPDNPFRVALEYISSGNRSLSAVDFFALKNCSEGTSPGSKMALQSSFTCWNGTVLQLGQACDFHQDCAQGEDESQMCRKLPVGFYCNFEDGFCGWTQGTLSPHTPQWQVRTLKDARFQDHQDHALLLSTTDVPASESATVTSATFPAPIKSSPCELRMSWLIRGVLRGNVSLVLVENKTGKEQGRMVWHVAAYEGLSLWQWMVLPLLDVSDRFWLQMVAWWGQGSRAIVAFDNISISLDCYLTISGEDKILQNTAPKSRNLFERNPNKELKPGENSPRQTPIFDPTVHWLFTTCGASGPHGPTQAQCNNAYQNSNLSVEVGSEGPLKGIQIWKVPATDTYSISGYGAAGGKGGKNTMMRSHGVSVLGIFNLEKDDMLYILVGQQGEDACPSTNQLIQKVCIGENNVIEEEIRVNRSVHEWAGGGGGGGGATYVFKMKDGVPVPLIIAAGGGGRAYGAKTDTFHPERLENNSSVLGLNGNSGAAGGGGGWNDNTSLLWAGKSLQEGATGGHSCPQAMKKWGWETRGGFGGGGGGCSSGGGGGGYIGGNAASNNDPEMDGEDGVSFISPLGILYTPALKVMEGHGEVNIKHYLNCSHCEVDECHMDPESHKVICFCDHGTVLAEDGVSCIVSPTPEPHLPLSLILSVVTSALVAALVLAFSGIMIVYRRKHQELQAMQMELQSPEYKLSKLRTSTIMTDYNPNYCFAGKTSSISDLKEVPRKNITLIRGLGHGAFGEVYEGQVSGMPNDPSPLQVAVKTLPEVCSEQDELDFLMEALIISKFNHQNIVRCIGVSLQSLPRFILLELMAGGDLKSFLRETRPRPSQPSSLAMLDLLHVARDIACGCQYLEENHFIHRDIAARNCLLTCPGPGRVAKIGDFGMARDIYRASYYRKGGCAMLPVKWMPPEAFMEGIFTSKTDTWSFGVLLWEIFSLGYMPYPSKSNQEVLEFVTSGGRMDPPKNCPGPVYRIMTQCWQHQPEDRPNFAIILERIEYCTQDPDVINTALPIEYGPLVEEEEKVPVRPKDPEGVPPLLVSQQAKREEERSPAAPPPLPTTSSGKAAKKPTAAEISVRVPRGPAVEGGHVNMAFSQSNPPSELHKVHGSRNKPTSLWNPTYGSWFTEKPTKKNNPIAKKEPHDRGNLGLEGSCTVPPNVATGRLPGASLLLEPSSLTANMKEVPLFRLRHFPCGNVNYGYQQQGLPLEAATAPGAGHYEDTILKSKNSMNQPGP
UniProt P10398: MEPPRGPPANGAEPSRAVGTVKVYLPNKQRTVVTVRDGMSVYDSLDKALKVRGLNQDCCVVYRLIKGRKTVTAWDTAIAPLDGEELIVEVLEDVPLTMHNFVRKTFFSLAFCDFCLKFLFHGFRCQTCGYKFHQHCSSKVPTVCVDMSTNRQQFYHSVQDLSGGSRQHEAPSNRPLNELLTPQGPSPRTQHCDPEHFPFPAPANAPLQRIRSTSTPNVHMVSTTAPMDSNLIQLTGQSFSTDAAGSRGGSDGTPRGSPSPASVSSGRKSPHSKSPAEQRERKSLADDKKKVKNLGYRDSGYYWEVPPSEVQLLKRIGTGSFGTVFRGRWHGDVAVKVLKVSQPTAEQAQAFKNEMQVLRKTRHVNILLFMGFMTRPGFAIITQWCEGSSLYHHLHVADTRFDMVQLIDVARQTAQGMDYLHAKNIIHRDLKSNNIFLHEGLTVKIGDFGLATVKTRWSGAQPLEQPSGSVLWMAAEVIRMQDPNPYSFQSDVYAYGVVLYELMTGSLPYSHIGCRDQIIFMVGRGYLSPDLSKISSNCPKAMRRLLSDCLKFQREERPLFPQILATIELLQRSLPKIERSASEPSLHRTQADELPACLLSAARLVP
UniProt O14965: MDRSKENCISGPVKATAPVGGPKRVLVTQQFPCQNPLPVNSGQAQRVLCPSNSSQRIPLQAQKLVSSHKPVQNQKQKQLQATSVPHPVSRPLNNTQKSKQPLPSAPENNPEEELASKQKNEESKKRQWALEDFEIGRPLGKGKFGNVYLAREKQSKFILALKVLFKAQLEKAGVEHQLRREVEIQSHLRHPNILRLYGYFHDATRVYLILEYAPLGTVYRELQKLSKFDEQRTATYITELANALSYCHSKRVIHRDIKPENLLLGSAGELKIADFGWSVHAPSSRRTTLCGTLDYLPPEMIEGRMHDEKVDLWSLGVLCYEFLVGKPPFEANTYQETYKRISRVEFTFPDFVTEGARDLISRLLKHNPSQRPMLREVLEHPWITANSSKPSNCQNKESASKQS
UniProt P51451: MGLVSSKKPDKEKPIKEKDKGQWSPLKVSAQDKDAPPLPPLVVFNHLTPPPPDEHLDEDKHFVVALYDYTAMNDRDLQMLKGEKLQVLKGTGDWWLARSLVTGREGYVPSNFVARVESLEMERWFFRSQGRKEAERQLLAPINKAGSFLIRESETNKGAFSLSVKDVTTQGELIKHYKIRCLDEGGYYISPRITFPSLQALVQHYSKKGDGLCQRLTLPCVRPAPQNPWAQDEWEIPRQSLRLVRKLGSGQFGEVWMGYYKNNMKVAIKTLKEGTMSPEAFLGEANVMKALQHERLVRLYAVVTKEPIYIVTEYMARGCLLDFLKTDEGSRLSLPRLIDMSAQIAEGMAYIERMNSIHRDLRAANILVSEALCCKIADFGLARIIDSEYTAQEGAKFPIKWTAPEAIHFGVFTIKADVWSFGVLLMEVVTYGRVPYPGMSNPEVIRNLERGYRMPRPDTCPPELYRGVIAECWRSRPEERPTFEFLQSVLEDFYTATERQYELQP
UniProt P15056, whole entry, looked up: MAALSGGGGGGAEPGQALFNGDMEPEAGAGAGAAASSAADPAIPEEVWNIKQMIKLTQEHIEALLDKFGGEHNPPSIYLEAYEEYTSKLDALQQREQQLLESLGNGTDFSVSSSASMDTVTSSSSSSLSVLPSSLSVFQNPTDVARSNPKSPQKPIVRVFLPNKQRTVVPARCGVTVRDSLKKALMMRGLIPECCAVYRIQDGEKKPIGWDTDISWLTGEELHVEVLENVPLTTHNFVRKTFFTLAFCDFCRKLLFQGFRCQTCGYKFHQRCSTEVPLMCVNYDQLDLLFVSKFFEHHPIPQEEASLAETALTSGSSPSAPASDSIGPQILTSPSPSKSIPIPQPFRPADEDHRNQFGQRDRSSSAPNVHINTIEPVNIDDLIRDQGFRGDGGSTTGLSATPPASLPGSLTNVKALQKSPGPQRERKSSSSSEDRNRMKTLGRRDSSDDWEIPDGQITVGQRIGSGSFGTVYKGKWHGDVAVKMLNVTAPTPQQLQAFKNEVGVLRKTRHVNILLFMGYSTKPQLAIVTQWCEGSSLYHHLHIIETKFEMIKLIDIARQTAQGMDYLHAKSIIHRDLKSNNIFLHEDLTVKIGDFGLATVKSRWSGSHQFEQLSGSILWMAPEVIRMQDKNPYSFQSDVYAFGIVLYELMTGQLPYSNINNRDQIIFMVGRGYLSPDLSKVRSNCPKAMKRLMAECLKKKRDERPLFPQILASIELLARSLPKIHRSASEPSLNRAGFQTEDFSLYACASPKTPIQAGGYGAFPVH
UniProt Q06187: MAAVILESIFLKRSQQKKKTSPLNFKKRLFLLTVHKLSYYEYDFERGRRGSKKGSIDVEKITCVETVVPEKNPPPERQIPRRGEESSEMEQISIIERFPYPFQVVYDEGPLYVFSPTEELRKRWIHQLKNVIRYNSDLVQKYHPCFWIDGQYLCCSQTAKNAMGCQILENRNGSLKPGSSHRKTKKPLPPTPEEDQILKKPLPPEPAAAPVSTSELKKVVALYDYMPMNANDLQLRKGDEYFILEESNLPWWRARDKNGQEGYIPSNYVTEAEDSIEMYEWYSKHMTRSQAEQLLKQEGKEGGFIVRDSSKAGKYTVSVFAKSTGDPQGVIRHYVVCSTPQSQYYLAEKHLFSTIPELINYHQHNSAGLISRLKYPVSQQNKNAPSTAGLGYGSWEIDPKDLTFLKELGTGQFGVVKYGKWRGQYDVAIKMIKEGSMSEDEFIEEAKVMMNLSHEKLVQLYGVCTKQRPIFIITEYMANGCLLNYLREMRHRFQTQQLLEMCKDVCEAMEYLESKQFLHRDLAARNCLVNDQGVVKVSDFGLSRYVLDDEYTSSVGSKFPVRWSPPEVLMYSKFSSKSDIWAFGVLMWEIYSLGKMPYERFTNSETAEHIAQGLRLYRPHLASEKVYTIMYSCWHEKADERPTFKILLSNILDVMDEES
UniProt Q13555: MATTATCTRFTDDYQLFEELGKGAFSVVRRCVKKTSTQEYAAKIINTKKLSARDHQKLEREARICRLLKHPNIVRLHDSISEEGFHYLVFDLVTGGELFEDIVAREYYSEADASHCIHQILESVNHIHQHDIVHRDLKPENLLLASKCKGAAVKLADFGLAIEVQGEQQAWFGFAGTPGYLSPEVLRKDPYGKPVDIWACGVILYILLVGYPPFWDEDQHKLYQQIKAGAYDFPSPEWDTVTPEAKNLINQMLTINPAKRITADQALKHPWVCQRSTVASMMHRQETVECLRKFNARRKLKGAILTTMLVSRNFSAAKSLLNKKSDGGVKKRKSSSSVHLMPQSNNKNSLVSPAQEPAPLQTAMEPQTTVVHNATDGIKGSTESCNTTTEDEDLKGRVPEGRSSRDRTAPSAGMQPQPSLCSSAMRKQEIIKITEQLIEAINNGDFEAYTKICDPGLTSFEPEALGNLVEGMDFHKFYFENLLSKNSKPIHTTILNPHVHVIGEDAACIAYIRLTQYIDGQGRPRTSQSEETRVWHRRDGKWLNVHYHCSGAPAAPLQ
UniProt Q15131: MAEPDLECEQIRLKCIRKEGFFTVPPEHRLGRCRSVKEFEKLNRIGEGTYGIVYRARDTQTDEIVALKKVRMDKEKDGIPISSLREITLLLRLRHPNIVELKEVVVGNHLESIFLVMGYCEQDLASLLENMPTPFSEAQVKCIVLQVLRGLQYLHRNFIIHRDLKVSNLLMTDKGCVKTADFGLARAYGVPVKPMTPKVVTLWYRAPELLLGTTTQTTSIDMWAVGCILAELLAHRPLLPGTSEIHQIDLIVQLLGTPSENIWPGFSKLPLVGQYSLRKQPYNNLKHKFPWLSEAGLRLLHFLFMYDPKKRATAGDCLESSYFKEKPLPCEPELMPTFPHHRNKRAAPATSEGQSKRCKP
UniProt Q00526: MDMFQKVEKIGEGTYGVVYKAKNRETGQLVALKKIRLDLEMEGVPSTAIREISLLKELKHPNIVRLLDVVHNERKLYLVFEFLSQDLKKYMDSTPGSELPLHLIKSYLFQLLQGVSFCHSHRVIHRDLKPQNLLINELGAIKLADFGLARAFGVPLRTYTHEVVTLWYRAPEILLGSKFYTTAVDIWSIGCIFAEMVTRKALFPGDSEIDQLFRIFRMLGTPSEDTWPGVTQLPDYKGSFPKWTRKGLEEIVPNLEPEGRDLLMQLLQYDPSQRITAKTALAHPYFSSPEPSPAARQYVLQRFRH
UniProt O96017, whole entry: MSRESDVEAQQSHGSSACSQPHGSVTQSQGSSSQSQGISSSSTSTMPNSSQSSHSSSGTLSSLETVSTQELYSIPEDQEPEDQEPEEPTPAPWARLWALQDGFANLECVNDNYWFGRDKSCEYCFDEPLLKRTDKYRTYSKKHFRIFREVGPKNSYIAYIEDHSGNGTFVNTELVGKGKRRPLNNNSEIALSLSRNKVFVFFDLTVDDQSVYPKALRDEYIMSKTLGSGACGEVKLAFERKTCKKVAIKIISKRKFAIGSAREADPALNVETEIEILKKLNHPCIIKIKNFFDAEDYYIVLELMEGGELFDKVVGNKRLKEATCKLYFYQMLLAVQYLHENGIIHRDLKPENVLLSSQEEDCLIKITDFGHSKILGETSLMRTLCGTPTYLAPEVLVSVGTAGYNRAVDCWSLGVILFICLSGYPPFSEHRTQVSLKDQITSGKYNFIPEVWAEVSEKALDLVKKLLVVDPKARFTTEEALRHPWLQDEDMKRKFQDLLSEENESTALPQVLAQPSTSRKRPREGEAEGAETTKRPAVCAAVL

Structure (SMILES)	number of time points (ALK)	number of time points (ARAF)	number of time points (AURKA)	number of time points (AURKB)	number of time points (AURKC)	number of time points (BLK)	number of time points (BMX)	number of time points (BRAF)	number of time points (BRAF_V600E)	number of time points (BTK)	number of time points (CAMK2A)	number of time points (CAMK2G)	number of time points (CDK10)	number of time points (CDK2)	number of time points (CDK3)	number of time points (CDK5)	number of time points (CDK6)	number of time points (CHEK2)	number of time points (CSF1R)	number of time points (CSK)
COc1cc2ncnc(Nc3cc(Br)c(O)c(Br)c3)c2cc1OC (2.5 µM)	0	0	0	0	0	0	0	0	0	0	0	0	0	0	0	0	0	0	0	0
COc1cc(N2CCC(O)CC2)ccc1Nc1nc(Nc2ccccc2S(=O)(=O)C(C)C)c2[nH]cnc2n1 (10 µM)	0	0	0	0	0	0	0	0	0	0	0	0	0	0	0	0	0	0	0	0
COc1ccc2cc1Oc1ccc(cc1)C[C@H]1c3cc(c(OC)cc3CCN1C)Oc1c(O)c(OC)cc3c1[C@H](C2)N(C)CC3 [Fangchinoline] (2.5 µM)	0	0	0	0	0	0	0	0	0	0	0	0	0	0	0	0	0	0	0	0
COc1cc(N2CCC(N3CCN(C)CC3)CC2)ccc1Nc1ncnc(Nc2ccccc2S(=O)(=O)C(C)C)n1 (10 µM)	0	0	0	0	0	0	2	0	0	0	0	0	0	0	0	0	0	0	0	0
CCc1cc(Nc2nccc(-c3c(-c4ccc(OC)c(C(=O)Nc5c(F)cccc5F)c4)nc4ccccn34)n2)c(OC)cc1N1CCC(N2CCN(S(C)(=O)=O)CC2)CC1 (2.5 µM)	0	0	0	0	0	0	0	0	0	0	0	0	0	0	0	0	4	1	0	0
Cc1ncsc1-c1ccc(CNC(=O)[C@@H]2C[C@@H](O)CN2C(=O)[C@@H](NC(=O)COCCOc2ccc(-c3cc(Nc4ccc(OC(F)(F)F)cc4)ncn3)cc2)C(C)(C)C)cc1 (2.5 µM)	1	0	3	1	0	0	2	1	2	0	0	0	0	0	0	0	0	2	0	0
O=C1NC(=O)C(Cc2c[nH]c3c(Cl)cccc23)N1 (stereo not given) [Necroptosis-IN-1] (10 µM)	0	0	0	0	0	0	0	0	0	0	0	0	0	0	0	0	0	0	0	0
O=C(COc1ccc(Cl)cc1)NC1CCC(NC(=O)COc2ccc(Cl)cc2)CC1 (stereo not drawn) [ISRIB (trans-isomer)] (10 µM)	0	0	0	0	0	0	0	0	0	0	0	0	0	0	0	0	0	0	0	0
O=S(=O)(c1ccc(O)cc1O)N1Cc2cc(O)cc(O)c2C1 (10 µM)	0	0	0	0	0	0	0	0	0	0	0	0	0	0	0	0	0	0	0	0
CN1CCN(Cc2ccc(-c3cn(C4CCC(O)CC4)c4nc(NCCC5CC5)ncc34)cc2)CC1 (stereo not given) (2.5 µM)	0	0	1	0	0	1	0	0	2	0	0	0	0	0	0	0	0	0	1	0
CC(C)c1cc2c(c(O)c1O)[C@@]13CCCC(C)(C)[C@@H]1C[C@@H]2OC3=O [Carnosol] (2.5 µM)	0	0	0	0	0	0	0	0	0	0	0	0	0	0	0	0	0	0	0	0
CCCCNc1ncc(C(=O)NCc2ccc(-n3ccnc3)cc2)c(NC2CCC(O)CC2)n1 (stereo not given) (10 µM)	0	0	0	0	0	0	0	0	0	0	0	0	0	0	0	0	0	1	1	0
Nc1[nH]nc2nnc(-c3c(-c4ccccc4)nn4ccccc34)cc12 (10 µM)	0	0	1	0	0	0	0	0	0	0	0	0	0	0	0	0	0	0	0	0
CC(C)Cn1ncc2cc(Oc3ccc(F)cc3F)c(C(=O)NCCN(C)C)cc21 [p38α inhibitor 1] (10 µM)	0	0	0	0	0	0	0	0	0	0	0	0	0	0	0	0	0	0	0	0
COc1cccc(-c2cc(=O)c3ccccc3o2)c1N (10 µM)	0	0	0	0	0	0	0	0	0	0	0	0	0	0	0	0	0	0	0	0
CC(ONC(=O)c1cc(C(F)(F)F)cc(C(F)(F)F)c1)C(=O)Nc1ccc(Cl)cc1 (stereo not given) (2.5 µM)	0	0	0	0	0	0	5	0	0	0	0	0	0	0	0	0	0	0	0	0
C[C@@H]1COC(Nc2ccc3ncnc(Nc4ccc(OCc5nccs5)c(Cl)c4)c3c2)=N1 [Varlitinib] (10 µM)	0	0	0	0	0	0	1	0	3	0	0	0	0	0	0	0	0	0	0	0

Filtered by structure, the compounds so far with a CF3 group (2)
Structure (SMILES)	number of time points (ALK)	number of time points (ARAF)	number of time points (AURKA)	number of time points (AURKB)	number of time points (AURKC)	number of time points (BLK)	number of time points (BMX)	number of time points (BRAF)	number of time points (BRAF_V600E)	number of time points (BTK)	number of time points (CAMK2A)	number of time points (CAMK2G)	number of time points (CDK10)	number of time points (CDK2)	number of time points (CDK3)	number of time points (CDK5)	number of time points (CDK6)	number of time points (CHEK2)	number of time points (CSF1R)	number of time points (CSK)
Cc1ncsc1-c1ccc(CNC(=O)[C@@H]2C[C@@H](O)CN2C(=O)[C@@H](NC(=O)COCCOc2ccc(-c3cc(Nc4ccc(OC(F)(F)F)cc4)ncn3)cc2)C(C)(C)C)cc1 (2.5 µM)	1	0	3	1	0	0	2	1	2	0	0	0	0	0	0	0	0	2	0	0
CC(ONC(=O)c1cc(C(F)(F)F)cc(C(F)(F)F)c1)C(=O)Nc1ccc(Cl)cc1 (stereo not given) (2.5 µM)	0	0	0	0	0	0	5	0	0	0	0	0	0	0	0	0	0	0	0	0

Next results follow:

Structure (SMILES)	number of time points (ALK)	number of time points (ARAF)	number of time points (AURKA)	number of time points (AURKB)	number of time points (AURKC)	number of time points (BLK)	number of time points (BMX)	number of time points (BRAF)	number of time points (BRAF_V600E)	number of time points (BTK)	number of time points (CAMK2A)	number of time points (CAMK2G)	number of time points (CDK10)	number of time points (CDK2)	number of time points (CDK3)	number of time points (CDK5)	number of time points (CDK6)	number of time points (CHEK2)	number of time points (CSF1R)	number of time points (CSK)
Cc1ccc(C2CC(=O)NC(SCC(=O)Nc3nccs3)=C2C#N)cc1 (stereo not given) [Necrostatin-34] (10 µM)	0	0	0	0	0	0	0	0	0	0	0	0	0	0	0	0	0	0	0	0
Cc1cccc(-c2nn3c(c2-c2ccnc4ccc(C(N)=O)cc24)CCC3)n1 [Galunisertib] (10 µM)	0	0	0	0	0	0	0	0	0	0	0	0	0	0	0	0	0	0	0	0
N#Cc1cc(-c2ccnc(Nc3ccc(N4CCOCC4)cc3)n2)ccc1OC1CCOCC1 (10 µM)	0	0	0	0	0	0	0	3	0	0	0	0	0	0	0	0	0	0	0	0
COc1ccc(CCNCc2ccc(OCc3ccc(Cl)nc3)c(OC)c2)cc1OC [SBE13 (Hydrochloride)] (10 µM)	0	0	0	0	0	0	0	0	0	0	0	0	0	0	0	0	0	0	0	0
CC(C)(Oc1ccc(Cl)cc1)C(=O)Nc1ccc(OCc2ccc(C#N)cc2)cc1 [AMPK activator 4] (10 µM)	0	0	0	0	0	0	0	0	0	0	0	0	0	0	0	0	0	0	0	0
CC1(C)C=Cc2c(ccc(C(=O)/C=C/c3ccc(O)cc3)c2O)O1 [4-Hydroxylonchocarpin] (10 µM)	0	0	0	0	0	5	0	0	0	0	0	0	0	0	0	0	0	0	0	0
N#Cc1cc(N2CCC(C(=O)N3N=CC[C@H]3c3cc(F)cc(F)c3)CC2)ncn1 (10 µM)	0	0	0	0	0	0	0	0	0	0	0	0	0	0	0	0	0	0	0	0
CCOC(=O)c1c(Nc2ccccc2Cl)oc(/C=C2\C=Nc3ncccc32)c1O (10 µM)	0	0	0	0	0	0	0	0	0	0	0	0	0	0	0	0	0	0	0	0
CN1CCC(Nc2nc(Nc3ccc(Oc4ccccc4)cc3)c3c(=O)[nH]cc(Br)c3n2)CC1 (2.5 µM)	0	0	3	0	0	3	4	0	0	1	0	4	0	0	0	0	0	3	0	0
NC(=O)c1cnc(N[C@@H]2CCCC[C@@H]2N)nc1Nc1cccc(-n2nccn2)c1 (2.5 µM)	0	0	0	0	0	0	0	0	0	0	0	0	0	0	0	0	0	0	0	0
NC(=O)c1sc2c([N+](=O)[O-])cc(C(F)(F)F)cc2[n+]1[O-] [Cyclapolin 9] (10 µM)	0	0	0	0	0	0	0	0	0	0	0	0	0	0	0	0	0	0	0	0
Cc1ccc(Nc2cc(N[C@@H]3CCCC[C@@H]3N)nnc2C(N)=O)nc1C (2 µM)	0	0	0	0	0	0	0	0	0	0	0	0	0	0	0	0	0	0	0	0
CNC(=O)CN1CCC(Oc2cc3c(Nc4cccc(Cl)c4F)ncnc3cc2OC)CC1 [Sapitinib] (10 µM)	0	0	0	0	0	0	0	0	0	0	0	0	0	0	0	0	0	0	0	0
CC(C)=CCC[C@](C)(O[C@@H]1O[C@H](CO[C@@H]2O[C@H](CO)[C@@H](O)[C@H](O)[C@H]2O)[C@@H](O)[C@H](O)[C@H]1O)[C@H]1CC[C@]2(C)[C@@H]1[C@H](O)C[C@@H]1[C@@]3(C)CC[C@H](O[C@@H]4O[C@H](CO)[C@@H](O)[C@H](O)[C@H]4O[C@@H]4O[C@H](CO)[C@@H](O)[C@H](O)[C@H]4O)C(C)(C)[C@@H]3CC[C@]12C [Ginsenoside Rb1] (10 µM)	0	0	0	0	0	0	0	0	0	0	0	0	0	0	0	0	0	0	0	0
COc1ccc2nc3ccc(OC)cc3c(SCCCN)c2c1 (10 µM)	3	0	3	1	0	1	0	0	1	0	0	0	0	0	0	0	0	2	0	0
S=C(NCc1ccc2c(c1)OCO2)N1CCN(c2ncnc3c2oc2ccccc23)CC1 [Amuvatinib] (2.5 µM)	0	0	0	0	0	1	0	0	0	0	0	0	0	0	0	0	0	0	0	0
O=C1OC(COc2ccccc2[N+](=O)[O-])CC1Cc1ccccc1 (stereo not given) (10 µM)	0	0	0	0	0	0	0	0	0	0	0	0	0	0	0	0	0	0	0	0

Reference: the supplement of paper PMC12823440, “Inhibitors supercharge kinase turnover through native proteolytic circuits” (Nature, 2025)
